Assay results published in paper PMC7819943, “Rice protein-binding microarrays: a tool to detect cis-acting elements near promoter regions in rice”.
The list shows a part of the results.

Chains of the proteins cited; added tags and fusions are not shown.
UniProt Q0JBA9, entry or part of it: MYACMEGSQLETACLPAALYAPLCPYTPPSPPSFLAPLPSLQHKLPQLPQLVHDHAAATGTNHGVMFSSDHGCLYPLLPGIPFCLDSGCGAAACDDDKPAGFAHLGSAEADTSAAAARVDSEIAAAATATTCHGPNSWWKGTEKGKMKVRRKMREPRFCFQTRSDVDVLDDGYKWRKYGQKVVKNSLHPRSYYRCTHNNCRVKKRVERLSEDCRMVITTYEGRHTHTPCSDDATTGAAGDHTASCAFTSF

molecular target: OsWRKY34 (Oryza sativa, UniProt Q0JBA9 1-250); assay: protein-binding microarray (RPBM); PBS, 2% BSA, 51.3 ng/ul salmon testes DNA, 50 uM zinc acetate, 200 nM TF, 25 C, 1 h; high values mean tight binding; details: protein: recombinant; tags: N-terminal polyhistidine and DsRed monomer fusion (pET32a); label: CyDye5-dUTP incorporated in the synthesized complementary strand; 3' TTTTT single-stranded linker to array surface; dsDNA, one strand shown
Outline: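 Polyhistidine-tagged DsRed fusions of transcription factors, joined at the N-terminus, were expressed in E. coli BL21-CodonPlus and isolated on Ni–NTA. They were incubated at 200 nM for 1 h at 25 °C on a custom Agilent array, double-stranded and BSA-blocked, in PBS with 2% BSA, salmon testes DNA and 50 µM zinc acetate. The binding signal is per-feature fluorescence intensity (arbitrary units) read on an Axon 4000B scanner after washing.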

Sequence | binding signal
GCAGACCGCGCCTCCTATAAAAGCTTGCCACCACCGCGCGCGGAGTCACCTAGTGCAG | 9030 fluorescence intensity (a.u.)
AGACAAACTCTGGTTTCCGTGTCCAACGTTTGACCGTTCGCGGAGTCACCTAGTGCAG | 11300 fluorescence intensity (a.u.)
CCTTGCGCCTCCGCTTCGCGAGCCTCATCTCCTCGATCTCCGGAGTCACCTAGTGCAG | 9140 fluorescence intensity (a.u.)
CAGCTTCCTAATCACCCTCACATGCATGGTTGCTCGTCATCGGAGTCACCTAGTGCAG | 10700 fluorescence intensity (a.u.)
AGTTTCCAAGTTTCCACTGTATATGTGGTTTGCACTACATCGGAGTCACCTAGTGCAG | 8780 fluorescence intensity (a.u.)
AATGTACGATAATTATTTTCAGTTTAATTTTTTTTACAACCGGAGTCACCTAGTGCAG | 8320 fluorescence intensity (a.u.)
CATCGCCACCACCGCAGCCGCCTCTCAATTAGGAACACGTCGGAGTCACCTAGTGCAG | 10300 fluorescence intensity (a.u.)
ATCTTCTTCTATGCATGAAACAGCCAACTTGATCATTGTTCGGAGTCACCTAGTGCAG | 8350 fluorescence intensity (a.u.)
CCACAACACCGCAACACACTGTCCTTGCTTCTTCATTGATCGGAGTCACCTAGTGCAG | 8750 fluorescence intensity (a.u.)
ATCTTCATATGTTTTACTAGCATGCTAATTTGTATGACTCCGGAGTCACCTAGTGCAG | 11400 fluorescence intensity (a.u.)
GAGCCCGACGAGTCCGAGACCAGCTGCTTCCGCTCCCACTCGGAGTCACCTAGTGCAG | 8780 fluorescence intensity (a.u.)
AGTTTGTGCTCCTTCCCACCTGCCACCTTCTTCATCTCCTCGGAGTCACCTAGTGCAG | 8060 fluorescence intensity (a.u.)
ATATTCTATTTCCCTGACGTGTTTATCGGAACCGTCATGACGGAGTCACCTAGTGCAG | 8600 fluorescence intensity (a.u.)
AGTCCGTTTCTAAGTATATAGTTGCTGGTCGCTTGTATTTCGGAGTCACCTAGTGCAG | 10200 fluorescence intensity (a.u.)
CATGGTGTTGTGTGACTTGTTCCTCATGTTCTTGCATGTCCGGAGTCACCTAGTGCAG | 9660 fluorescence intensity (a.u.)
CTCGCACCCCAAAGTTGGCACCACTCTCTCTCTCTCTCTTCGGAGTCACCTAGTGCAG | 8750 fluorescence intensity (a.u.)
AACATGATTTAACAGGTAACAGTCGCCCATGCCATTCTTGCGGAGTCACCTAGTGCAG | 8270 fluorescence intensity (a.u.)
GGGCGGCGATCTCCATCGCAGCGGAGGGGAGGGGATCCTGCGGAGTCACCTAGTGCAG | 11400 ± 717 fluorescence intensity (a.u.)
TCCTCGTCTTGCTCCACAGTACACTCGCACACCCACCACACGGAGTCACCTAGTGCAG | 9550 fluorescence intensity (a.u.)
ATCACCTGTTCGCCGTGGATCCCGTGCGGCCGCTATCTCGCGGAGTCACCTAGTGCAG | 8710 fluorescence intensity (a.u.)
ATGGGTTAATTTTGTGGGAAGAAATTGCCCATTGCTAATGCGGAGTCACCTAGTGCAG | 8240 fluorescence intensity (a.u.)
CCGGTTGAATTTTTCGTGTATTCTCTTTCGGCATACATGTCGGAGTCACCTAGTGCAG | 8390 fluorescence intensity (a.u.)
GCAATGAGGAGGATGTGCTCGTGGGCTTCACCGTTGACGACGGAGTCACCTAGTGCAG | 8300 fluorescence intensity (a.u.)
GCATGTATCAATTTTCTGTCCTTACAATTTTTCTATAAACCGGAGTCACCTAGTGCAG | 8970 fluorescence intensity (a.u.)
GTATTTAATTAGCTCCTCGTCTTGTTCTGCTAAGCTACTACGGAGTCACCTAGTGCAG | 9460 fluorescence intensity (a.u.)
TTTCTAGCATTTTCCATTTCCTGGTGCACCATTCTTCCAACGGAGTCACCTAGTGCAG | 9880 fluorescence intensity (a.u.)
GACCGGTTCCATCGTCTCCGCCGTGGACCAGCGCCAACCCCGGAGTCACCTAGTGCAG | 10700 fluorescence intensity (a.u.)

Rewritten tab-delimited: part of the list above
Sequence	binding signal
ATCACCTGTTCGCCGTGGATCCCGTGCGGCCGCTATCTCGCGGAGTCACCTAGTGCAG	8710 fluorescence intensity (a.u.)
ATGGGTTAATTTTGTGGGAAGAAATTGCCCATTGCTAATGCGGAGTCACCTAGTGCAG	8240 fluorescence intensity (a.u.)
CCGGTTGAATTTTTCGTGTATTCTCTTTCGGCATACATGTCGGAGTCACCTAGTGCAG	8390 fluorescence intensity (a.u.)
GCAATGAGGAGGATGTGCTCGTGGGCTTCACCGTTGACGACGGAGTCACCTAGTGCAG	8300 fluorescence intensity (a.u.)

Next part:

Sequence | binding signal
GATTCCACACAATATTGATCATCTCTCTCTCTCTCTCTCTCGGAGTCACCTAGTGCAG | 10000 fluorescence intensity (a.u.)
TAGTGGTGGTGCATATGGAGGGTTTTGTGATTTTGACACCCGGAGTCACCTAGTGCAG | 8380 fluorescence intensity (a.u.)
TTCTTGTTGGGCCGAAATGTTTATGATGTCTTTTGATTCTCGGAGTCACCTAGTGCAG | 8850 fluorescence intensity (a.u.)
ACCCGTTGTACACCTCACCTCACGCTCAAAGGCAACGCAACGGAGTCACCTAGTGCAG | 8700 fluorescence intensity (a.u.)
TTCAATACTGGGCCTTGCTTTTTCATATTTTGTTGCCTCTCGGAGTCACCTAGTGCAG | 10000 fluorescence intensity (a.u.)
CTACACGCGTTACGGACCTTCCGTTATACTCCTTCGGTTTCGGAGTCACCTAGTGCAG | 12000 fluorescence intensity (a.u.)
GCGCGCTAATCCTCATGCTAATCGTGTTTTACTCTGTAACCGGAGTCACCTAGTGCAG | 9340 fluorescence intensity (a.u.)
GGTTTCGGTTAACTTTTGTGCACACTCGCCAGTGAGAGTTCGGAGTCACCTAGTGCAG | 12300 fluorescence intensity (a.u.)
ACTCCATTGGACTCCAATAGCACTATCACACTCGCATTTCCGGAGTCACCTAGTGCAG | 10600 fluorescence intensity (a.u.)
AACGCCAGGAATCAATACTGTAGTACCGTACATCCAGCGTCGGAGTCACCTAGTGCAG | 8260 fluorescence intensity (a.u.)
TATACTAGTTTATTTCTCTACCATCTACTTTTATACTAATCGGAGTCACCTAGTGCAG | 9040 fluorescence intensity (a.u.)
CAACCTTAAACTTTGCTAATAGCCTACTCCTTTCATTATACGGAGTCACCTAGTGCAG | 8760 fluorescence intensity (a.u.)
GCTCTAAGGGTGGGTTTTGATGGGAGGTTTTGGATGGATACGGAGTCACCTAGTGCAG | 14000 fluorescence intensity (a.u.)
ATCAAATGGTCATTCCAACGGTTGTCCTGTGCTTTTGTAACGGAGTCACCTAGTGCAG | 8020 fluorescence intensity (a.u.)
TGCTTCGCCTCGGCCACGCTGCGGCCACCTCCTTTCTGCCCGGAGTCACCTAGTGCAG | 8260 fluorescence intensity (a.u.)
GCCAAAACATGCCTTTTCAACCTTTGTTTATACCTAATTACGGAGTCACCTAGTGCAG | 8510 fluorescence intensity (a.u.)
TGCGCTCGCACTCCACTGCTCGGCCCGCCTCGCTCGCGCCCGGAGTCACCTAGTGCAG | 10400 fluorescence intensity (a.u.)
TATAACACCAATGACTCTATCTTCATCCGCATGCGTGCCGCGGAGTCACCTAGTGCAG | 9390 fluorescence intensity (a.u.)
ATGCGGATCTGAGTGGTGGTGGTGGTGGACTGGTGGTTGCCGGAGTCACCTAGTGCAG | 11000 fluorescence intensity (a.u.)
ACACTCTCCTTTCTCAAAACTTATGCTCTTTAGTTTTTCTCGGAGTCACCTAGTGCAG | 9450 fluorescence intensity (a.u.)
TCCTTTTCCTTTCTTTCTCTTTGTGTTTTCTTACGAGGGCCGGAGTCACCTAGTGCAG | 9730 fluorescence intensity (a.u.)
TCTCTCTCTCTCTCTGCTTCCGCGAGTGCTCGTTTTTTCCCGGAGTCACCTAGTGCAG | 14900 fluorescence intensity (a.u.)
ATTGCATGTGTTCACTAGCGACGACGCCGTTTTAGTTTCCCGGAGTCACCTAGTGCAG | 10600 fluorescence intensity (a.u.)
CGTCCCGGCAGCTACCTCCGCTTTCCACCACGCCGGCCGACGGAGTCACCTAGTGCAG | 10800 fluorescence intensity (a.u.)
CACCCATGGGTTGGTGGGTACGGCCGTACGGGTGGGTAAACGGAGTCACCTAGTGCAG | 9590 fluorescence intensity (a.u.)
TCTTCTTCTTGCGCTTCTTGGCGCCGCCGCGGAGGCGGAGCGGAGTCACCTAGTGCAG | 8650 fluorescence intensity (a.u.)
ATTTTCTTTTGGGGACCATCTCATCTCACCCACCCTCAAACGGAGTCACCTAGTGCAG | 9930 fluorescence intensity (a.u.)
